In the data set the test system is ETV5. Briefly: EMSA. To be noted: ETV5 60-240 nM, probe 5 nM, diffuse high-MW smear; 20 mM HEPES-KOH pH 7.5, 5 mM MgCl2, 50 mM KCl, 10 mM DTT, 10% glycerol; 5 nM probe, 25 min at 25 C; 6% PAGE in 0.5x TBE; commercial protein; label: 5'-FAM on sense strand. A general note: In EMSA bound probe runs differently from free probe, usually more slowly.

The exact form of at least one protein or probe is not confirmed.

For the sequence “TTTTAACGGCGTGGTTTGAATGTTGCACTGGGTCCACCTGCCTCTGTCTCCGGCTGCGGGGACGTTCGGA (double strand) [MRPL30 probe (WT)]”, the binding result is on record as “binds”.

Source of the values: article PMC13534636.
